Results are given in words; binding and its absence hold for the method and conditions named. Binding seen in cells or lysates may run through a third protein. Where a sequence is shown, tags or fusion partners need not be part of it.

The chains behind the UniProt entries cited, without tags or fusion partners.
UniProt O92432: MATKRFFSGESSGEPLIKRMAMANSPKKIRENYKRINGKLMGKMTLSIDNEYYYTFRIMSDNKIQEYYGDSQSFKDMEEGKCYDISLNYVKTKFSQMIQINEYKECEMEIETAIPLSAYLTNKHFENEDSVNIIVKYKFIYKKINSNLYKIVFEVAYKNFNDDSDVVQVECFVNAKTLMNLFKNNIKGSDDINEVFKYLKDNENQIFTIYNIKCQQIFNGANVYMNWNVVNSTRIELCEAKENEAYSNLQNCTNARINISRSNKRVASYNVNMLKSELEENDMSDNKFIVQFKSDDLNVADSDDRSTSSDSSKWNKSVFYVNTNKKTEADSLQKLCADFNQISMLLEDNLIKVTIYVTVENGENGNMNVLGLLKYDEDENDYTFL
UniProt O92415: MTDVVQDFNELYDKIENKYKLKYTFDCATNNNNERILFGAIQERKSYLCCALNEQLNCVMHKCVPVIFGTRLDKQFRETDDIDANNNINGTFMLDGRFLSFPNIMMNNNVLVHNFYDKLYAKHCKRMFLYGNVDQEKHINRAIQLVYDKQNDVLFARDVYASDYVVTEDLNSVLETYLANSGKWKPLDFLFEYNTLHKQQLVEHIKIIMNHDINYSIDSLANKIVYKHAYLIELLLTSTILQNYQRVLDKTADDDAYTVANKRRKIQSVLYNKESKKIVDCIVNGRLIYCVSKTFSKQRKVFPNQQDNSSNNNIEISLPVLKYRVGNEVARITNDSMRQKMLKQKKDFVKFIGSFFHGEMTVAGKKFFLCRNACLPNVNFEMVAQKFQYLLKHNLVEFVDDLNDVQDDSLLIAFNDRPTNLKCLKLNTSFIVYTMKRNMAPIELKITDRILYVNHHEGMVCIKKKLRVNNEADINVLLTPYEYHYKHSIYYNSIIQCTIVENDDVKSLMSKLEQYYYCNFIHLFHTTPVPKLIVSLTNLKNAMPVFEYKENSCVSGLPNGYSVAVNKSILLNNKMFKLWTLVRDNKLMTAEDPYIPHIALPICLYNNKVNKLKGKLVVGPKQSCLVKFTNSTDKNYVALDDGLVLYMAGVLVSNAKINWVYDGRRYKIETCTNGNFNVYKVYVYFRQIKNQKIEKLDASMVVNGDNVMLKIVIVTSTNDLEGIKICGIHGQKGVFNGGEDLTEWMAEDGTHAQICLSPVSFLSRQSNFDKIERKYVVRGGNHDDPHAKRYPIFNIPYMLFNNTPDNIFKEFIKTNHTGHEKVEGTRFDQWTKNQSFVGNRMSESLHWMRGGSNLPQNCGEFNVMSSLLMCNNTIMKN

This assay has as its target T1, LEF-11^HA (BmNPV LEF-11 with HA tag, from pIZ-LEF-11^HA) (Bombyx mori nucleopolyhedrovirus (BmNPV)) (UniProt O92404).
T1 sequence: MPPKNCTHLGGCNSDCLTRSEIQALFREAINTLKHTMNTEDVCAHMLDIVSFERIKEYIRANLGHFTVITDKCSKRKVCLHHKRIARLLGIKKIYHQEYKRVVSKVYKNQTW
In words: co-IP.

Take “LEF-3^FLAG (BmNPV LEF-3 with FLAG tag, from pIZ-LEF-3^FLAG) (from UniProt O92432 1-385)”: the binding entry is “no binding”. The result for “LEF-8^FLAG (BmNPV LEF-8 with FLAG tag, from pIZ-LEF-8^FLAG) (from UniProt O92415 1-877)” reads “no binding”.

The values above are taken from publication PMC5385504.
